Assay in all cases: affinity purification with mass spectrometry; PTP tandem affinity purification (IgG Sepharose, TEV elution, anti-protein C matrix) from procyclic T. brucei lysate; SDS-PAGE bands (SYPRO Ruby) identified by LC-MS/MS
Assay [1] has as its target TbPSTK-PTP (phosphoseryl-tRNASec kinase of T. brucei, PTP-tagged) (Trypanosoma brucei) (UniProt Q38A45).
Assay [2] addresses T1, TbSEPHS2-PTP (Trypanosoma brucei) (UniProt Q38A34).
T1 sequence: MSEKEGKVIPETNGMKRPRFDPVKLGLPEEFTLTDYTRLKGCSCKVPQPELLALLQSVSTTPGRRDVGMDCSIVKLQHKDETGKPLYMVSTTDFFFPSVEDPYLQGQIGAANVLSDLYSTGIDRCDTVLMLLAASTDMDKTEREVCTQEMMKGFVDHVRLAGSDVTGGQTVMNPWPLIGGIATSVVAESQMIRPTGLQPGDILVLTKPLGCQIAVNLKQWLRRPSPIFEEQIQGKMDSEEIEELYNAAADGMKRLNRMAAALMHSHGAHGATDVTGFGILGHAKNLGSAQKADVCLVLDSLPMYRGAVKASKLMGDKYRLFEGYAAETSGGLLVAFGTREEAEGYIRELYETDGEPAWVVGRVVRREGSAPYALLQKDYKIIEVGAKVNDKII

By UniProt entry, the sequences of proteins in these tests, tags left out. Where a name states a change or a piece, a line headed by the entry shows the natural chain unless it says otherwise.
UniProt Q38A45: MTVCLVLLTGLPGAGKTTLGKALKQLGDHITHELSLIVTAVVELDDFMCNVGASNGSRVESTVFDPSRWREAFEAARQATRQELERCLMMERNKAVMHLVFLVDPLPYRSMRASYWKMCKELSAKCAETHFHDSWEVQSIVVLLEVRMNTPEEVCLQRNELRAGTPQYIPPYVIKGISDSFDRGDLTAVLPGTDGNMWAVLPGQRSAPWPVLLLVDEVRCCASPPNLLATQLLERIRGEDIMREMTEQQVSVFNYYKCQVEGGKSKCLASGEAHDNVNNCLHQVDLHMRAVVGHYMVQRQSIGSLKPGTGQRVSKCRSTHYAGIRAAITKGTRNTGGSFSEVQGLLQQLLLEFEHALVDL
UniProt Q382M9: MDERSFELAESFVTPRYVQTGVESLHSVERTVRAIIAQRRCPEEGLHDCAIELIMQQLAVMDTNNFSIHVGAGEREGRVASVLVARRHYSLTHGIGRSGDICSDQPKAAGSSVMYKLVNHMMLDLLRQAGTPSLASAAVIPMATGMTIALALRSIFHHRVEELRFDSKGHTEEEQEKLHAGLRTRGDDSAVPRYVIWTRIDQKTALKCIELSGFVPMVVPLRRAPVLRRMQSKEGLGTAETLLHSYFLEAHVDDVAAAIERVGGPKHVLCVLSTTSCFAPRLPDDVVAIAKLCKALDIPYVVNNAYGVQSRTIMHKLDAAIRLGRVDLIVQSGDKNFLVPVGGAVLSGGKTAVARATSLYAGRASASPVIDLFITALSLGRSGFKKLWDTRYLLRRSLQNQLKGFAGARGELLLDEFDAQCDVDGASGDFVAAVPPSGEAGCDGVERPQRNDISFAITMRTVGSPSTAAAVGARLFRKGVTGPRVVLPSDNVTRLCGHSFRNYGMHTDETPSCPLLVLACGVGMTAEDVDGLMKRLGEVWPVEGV

The target in assay [3] is TbeEFSec-PTP (tRNASec-specific elongation factor of T. brucei, PTP-tagged) (Trypanosoma brucei).
The target of assay [4] is TbSCLY-PTP (Trypanosoma brucei).

Results are given in words; binding and its absence hold for the method and conditions named. Binding seen in cells or lysates may run through a third protein. Here binding means that the protein was enriched with, or labelled near, the bait; the list need not be complete. For part of these data: No binding means not detected with the bait.

As to “TbSEPSECS, endogenous in procyclic T. brucei (from UniProt Q382M9) (enzyme)”, the binding entry in assay [1] is listed as “binds”; in assay [2], “no binding”.
As for “TbSCLY, endogenous in procyclic T. brucei (enzyme)”, the binding entry in assay [2] is reported as “binds”.

B1: Trypanosoma brucei selenophosphate synthetase (TbSEPHS2), recombinant full-length (enzyme, UniProt Q38A34 1-393, looked up)
chain: T1 sequence
notes: selenophosphate synthetase SEPHS2 of Trypanosoma brucei, Tb927.10.9410, 393 residues (from the limits of the truncated constructs); also called SPS2; TbSPSH2
Consider B1, for which the figures for the binding entry in assay [3], in assay [4] and in assay [1] were “no binding”, “binds” and “no binding”, respectively.

The values are drawn from PMC7595633 (PLoS Neglected Tropical Diseases, 2020).
